{"sequences": {"note": "By UniProt entry, the sequences of proteins in these tests, tags left out.", "UniProt P09269": "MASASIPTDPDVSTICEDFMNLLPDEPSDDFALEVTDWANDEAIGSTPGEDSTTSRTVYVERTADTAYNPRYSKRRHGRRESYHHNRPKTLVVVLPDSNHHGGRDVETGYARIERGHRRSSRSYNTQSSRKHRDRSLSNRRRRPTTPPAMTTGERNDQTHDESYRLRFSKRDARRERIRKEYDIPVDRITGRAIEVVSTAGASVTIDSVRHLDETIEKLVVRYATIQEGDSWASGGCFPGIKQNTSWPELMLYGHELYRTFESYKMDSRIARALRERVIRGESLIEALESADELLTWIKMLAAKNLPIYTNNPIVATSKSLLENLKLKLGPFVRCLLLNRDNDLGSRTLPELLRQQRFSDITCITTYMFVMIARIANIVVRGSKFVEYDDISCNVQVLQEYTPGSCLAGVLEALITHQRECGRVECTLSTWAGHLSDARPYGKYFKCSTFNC"}, "source": "paper PMC2775670", "binders": {"B1": {"name": "endogenous SRp20 of HeLa cells (protein, UniProt P84103 1-164)", "chain": "MHRDSCPLDCKVYVGNLGNNGNKTELERAFGYYGPLRSVWVARNPPGFAFVEFEDPRDAADAVRELDGRTLCGCRVRVELSNGEKRSRNRGPPPSWGRRPRDDYRRRSPPPRRRSPRRRSFSRSRSRSLSRDRRRERSLSRERNHKPSRSFSRSRSRSRSNERK"}, "B2": {"name": "HA-9G8 (pCMV-HA-9G8) (protein, UniProt Q16629 1-238)", "chain": "MSRYGRYGGETKVYVGNLGTGAGKGELERAFSYYGPLRTVWIARNPPGFAFVEFEDPRDAEDAVRGLDGKVICGSRVRVELSTGMPRRSRFDRPPARRPFDPNDRCYECGEKGHYAYDCHRYSRRRRSRSRSRSHSRSRGRRYSRSRSRSRGRRSRSASPRRSRSISLRRSRSASLRRSRSGSIKGSRYFQSPSRSRSRSRSISRPRSSRSKSRSPSPKRSRSPSGSPRRSASPERMD"}, "B3": {"name": "HA-SRp20 (pCMV-HA-SRp20) (protein, UniProt P84103 1-164)", "chain": "B1 chain"}}, "note": "No constants are given. Whether binding was seen depends on the method and setting. Binding seen in cells or lysates may run through a third protein. Some binding calls cover weakened binding; strength is not graded here. Where a sequence is shown, tags or fusion partners need not be part of it.", "data": [{"target": "IE4-V5 (pcDNA3.1/V5-His-TOPO-IE4) expressed in HeLa cells (Varicella-Zoster virus) (UniProt P09269)", "assay": "co-IP", "values": [{"binder": "B1", "binding": "binds"}, {"binder": "B2", "binding": "binds"}, {"binder": "B3", "binding": "binds"}]}]}
